Results are given in words; binding and its absence hold for the method and conditions named. For some of these results: Binding seen in cells or lysates may run through a third protein. Some entries that bind do so weakly or less than the wild type. Where a sequence is shown, tags or fusion partners need not be part of it. Each block holds one binder with its values, some of them ahead of it.
Columns and labels:
[1] = target: T1, Flag-tagged full-length human ITPRIPL1 (expressed from pcDNA3.1 in transfected cells) (human) (UniProt Q6GPH6); test: flow cytometry (legend of FIG. 33 and FIG. 34)
T1 sequence: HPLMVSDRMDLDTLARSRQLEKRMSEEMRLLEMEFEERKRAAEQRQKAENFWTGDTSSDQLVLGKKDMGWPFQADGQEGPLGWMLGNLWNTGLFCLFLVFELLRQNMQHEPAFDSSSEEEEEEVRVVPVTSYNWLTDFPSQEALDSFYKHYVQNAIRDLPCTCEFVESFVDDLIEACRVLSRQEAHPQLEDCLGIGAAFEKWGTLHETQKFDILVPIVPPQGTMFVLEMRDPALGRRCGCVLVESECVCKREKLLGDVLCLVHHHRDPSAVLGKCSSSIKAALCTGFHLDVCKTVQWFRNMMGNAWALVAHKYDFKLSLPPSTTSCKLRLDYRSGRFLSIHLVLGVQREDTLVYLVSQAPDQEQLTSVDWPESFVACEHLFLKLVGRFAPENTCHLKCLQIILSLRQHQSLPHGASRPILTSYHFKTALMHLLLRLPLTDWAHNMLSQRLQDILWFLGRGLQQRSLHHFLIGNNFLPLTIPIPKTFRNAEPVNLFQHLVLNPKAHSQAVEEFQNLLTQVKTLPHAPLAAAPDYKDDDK

The chains behind the UniProt entries cited, without tags or fusion partners. Where a name states a change or a piece, a line headed by the entry shows the natural chain unless it says otherwise. A line that says so, or that is headed by a name, gives the form on record, which may keep a tag or linker. Residues count along the entry.
UniProt P07766: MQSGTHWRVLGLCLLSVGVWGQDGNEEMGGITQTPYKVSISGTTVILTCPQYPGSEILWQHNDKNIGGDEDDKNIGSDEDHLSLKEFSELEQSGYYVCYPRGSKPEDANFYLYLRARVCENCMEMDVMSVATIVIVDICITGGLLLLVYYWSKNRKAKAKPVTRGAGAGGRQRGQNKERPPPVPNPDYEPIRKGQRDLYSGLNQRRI
HA-tagged CD3ε (expressed from pcDNA3.1 in transfected HCT116 cells): residues 23-207 of P07766
CD3E-human Fc protein (Sino Biological): residues 23-126 of P07766

[2] = target: T1, Flag-tagged full-length human ITPRIPL1 (expressed from pcDNA3.1 in transfected cells) (human); test: flow cytometry on 293E-ITPRIPL1 cells, 0-4 µg/ml NRP2 protein
[3] = target: HA-tagged CD3ε (expressed from pcDNA3.1 in transfected HCT116 cells) (human) (UniProt P07766); test: immunofluorescence of co-cultured, separately transfected HCT116 cells
[4] = target: CD3E-human Fc protein (Sino Biological) (UniProt P07766); test: OCTET (legend of FIG. 40)
[5] = target: CD3E-human Fc protein (Sino Biological) (UniProt P07766); test: OCTET (BLI), CD3E-Fc on Fc probes, ITPRIPL1 extracellular domain at 800/1600/3200 nM
[6] = target: T2, NRP2 extracellular domain protein with hFc (Sino Biological) (UniProt O60462)
T2 sequence (looked up): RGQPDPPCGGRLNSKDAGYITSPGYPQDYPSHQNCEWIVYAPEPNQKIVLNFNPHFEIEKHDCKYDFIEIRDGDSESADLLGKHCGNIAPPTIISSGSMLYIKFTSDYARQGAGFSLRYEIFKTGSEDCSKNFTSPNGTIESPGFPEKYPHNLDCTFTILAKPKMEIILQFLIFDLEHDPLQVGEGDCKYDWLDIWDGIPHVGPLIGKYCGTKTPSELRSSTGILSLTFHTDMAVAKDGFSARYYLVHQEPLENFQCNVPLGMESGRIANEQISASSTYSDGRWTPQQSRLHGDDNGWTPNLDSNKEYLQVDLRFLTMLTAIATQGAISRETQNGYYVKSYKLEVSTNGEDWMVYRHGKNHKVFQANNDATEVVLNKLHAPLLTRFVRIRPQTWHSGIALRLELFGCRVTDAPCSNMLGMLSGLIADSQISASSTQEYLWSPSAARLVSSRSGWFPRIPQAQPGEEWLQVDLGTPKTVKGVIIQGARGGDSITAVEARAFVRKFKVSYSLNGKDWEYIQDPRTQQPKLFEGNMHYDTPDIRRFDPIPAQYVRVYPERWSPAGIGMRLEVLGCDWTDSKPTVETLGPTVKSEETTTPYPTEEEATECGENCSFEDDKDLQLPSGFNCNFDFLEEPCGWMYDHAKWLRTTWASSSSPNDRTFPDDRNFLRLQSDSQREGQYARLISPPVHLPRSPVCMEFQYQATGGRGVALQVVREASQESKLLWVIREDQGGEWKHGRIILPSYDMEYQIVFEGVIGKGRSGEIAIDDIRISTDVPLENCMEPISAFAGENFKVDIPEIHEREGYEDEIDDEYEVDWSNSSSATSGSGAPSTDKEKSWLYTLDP

[7] = target: CD3 (CD3ε) endogenously expressed in Jurkat cells (UniProt P07766); test: flow cytometry on Jurkat cells (legend of FIG. 9 and FIG. 10)
[8] = target: CD3 (CD3ε) endogenously expressed in Jurkat cells (UniProt P07766); test: flow cytometry on Jurkat cells, 0.5-4 µg/ml protein, anti-6x-His-FITC
[9] = target: HA-tagged CD3ε (expressed from pcDNA3.1 in transfected HCT116 cells) (human) (UniProt P07766); test: co-immunoprecipitation (Flag IP) from co-transfected HCT116 cells, Western blot
[10] = target: HA-tagged CD3ε (expressed from pcDNA3.1 in transfected HCT116 cells) (human) (UniProt P07766); test: co-immunoprecipitation (HA or Flag IP) from co-transfected HCT116 cells, Western blot

B2: Flag-tagged mouse ITPRIPL1 extracellular domain-green fluorescent protein (ligand, UniProt A2ASA8 23-96, looked up, not shown: large carriers)
chain: DRMDLDTLARSRQLEKRMSEEMRQLEMEFEERSRAAEQKQKVENFWRGDTSSDQLVLGKKDMGWPFQAGGQDGG
- binding [3]: binds

B4: ITPRIPL1 extracellular domain (25-103 amino acids) with C-terminal Flag tag and GFP (ligand, not shown: large carriers)
chain: HPLMVSDRMDLDTLARSRQLEKRMSEEMRLLEMEFEERKRAAEQRQKAENFWTGDTSSDQLVLGKKDMGWPFQADGQEG
- binding [9]: binds
- binding [10]: binds

Results, then the binder that gave them:

- binding [1]: binds
- binding [2]: binds
B1: NRP2 extracellular domain protein with hFc (Sino Biological) (Fc fusion, UniProt O60462 21-864, looked up, not shown: a dimerising Fc or GST)
chain: RGQPDPPCGGRLNSKDAGYITSPGYPQDYPSHQNCEWIVYAPEPNQKIVLNFNPHFEIEKHDCKYDFIEIRDGDSESADLLGKHCGNIAPPTIISSGSMLYIKFTSDYARQGAGFSLRYEIFKTGSEDCSKNFTSPNGTIESPGFPEKYPHNLDCTFTILAKPKMEIILQFLIFDLEHDPLQVGEGDCKYDWLDIWDGIPHVGPLIGKYCGTKTPSELRSSTGILSLTFHTDMAVAKDGFSARYYLVHQEPLENFQCNVPLGMESGRIANEQISASSTYSDGRWTPQQSRLHGDDNGWTPNLDSNKEYLQVDLRFLTMLTAIATQGAISRETQNGYYVKSYKLEVSTNGEDWMVYRHGKNHKVFQANNDATEVVLNKLHAPLLTRFVRIRPQTWHSGIALRLELFGCRVTDAPCSNMLGMLSGLIADSQISASSTQEYLWSPSAARLVSSRSGWFPRIPQAQPGEEWLQVDLGTPKTVKGVIIQGARGGDSITAVEARAFVRKFKVSYSLNGKDWEYIQDPRTQQPKLFEGNMHYDTPDIRRFDPIPAQYVRVYPERWSPAGIGMRLEVLGCDWTDSKPTVETLGPTVKSEETTTPYPTEEEATECGENCSFEDDKDLQLPSGFNCNFDFLEEPCGWMYDHAKWLRTTWASSSSPNDRTFPDDRNFLRLQSDSQREGQYARLISPPVHLPRSPVCMEFQYQATGGRGVALQVVREASQESKLLWVIREDQGGEWKHGRIILPSYDMEYQIVFEGVIGKGRSGEIAIDDIRISTDVPLENCMEPISAFAGENFKVDIPEIHEREGYEDEIDDEYEVDWSNSSSATSGSGAPSTDKEKSWLYTLDP

- binding [4]: binds
- binding [5]: binds
- binding [6]: binds
- binding [7]: binds
- binding [8]: binds
B3: ITPRIPL1-RBD recombinant protein (human ITPRIPL1 extracellular domain, 25-103 amino acids, C-terminal 6x-His and Myc tags, Cusabio, from yeast) (ligand, not shown: small tags and cut ends)
chain: HPLMVSDRMDLDTLARSRQLEKRMSEEMRLLEMEFEERKRAAEQRQKAENFWTGDTSSDQLVLGKKDMGWPFQADGQEG

— patent publication US20240034776A1
